Assays:
COTRANSPORT Na-K = target: T1, COTRANSPORT Na-K (Homo sapiens, UniProt P55011); test: Na-K cotransport of human erythrocytes; assay type: cell-based, ERYTHROCYTES HUMAINS; conditions: read-out: EFFET SUR LE COTRANSPORT Na-K IC 50
T1 construct: systèmes de transport du sodium et du potassium des érythrocytes humains; endogenous in cells; host or cells: human erythrocytes
T1 sequence (P55011 1-1212): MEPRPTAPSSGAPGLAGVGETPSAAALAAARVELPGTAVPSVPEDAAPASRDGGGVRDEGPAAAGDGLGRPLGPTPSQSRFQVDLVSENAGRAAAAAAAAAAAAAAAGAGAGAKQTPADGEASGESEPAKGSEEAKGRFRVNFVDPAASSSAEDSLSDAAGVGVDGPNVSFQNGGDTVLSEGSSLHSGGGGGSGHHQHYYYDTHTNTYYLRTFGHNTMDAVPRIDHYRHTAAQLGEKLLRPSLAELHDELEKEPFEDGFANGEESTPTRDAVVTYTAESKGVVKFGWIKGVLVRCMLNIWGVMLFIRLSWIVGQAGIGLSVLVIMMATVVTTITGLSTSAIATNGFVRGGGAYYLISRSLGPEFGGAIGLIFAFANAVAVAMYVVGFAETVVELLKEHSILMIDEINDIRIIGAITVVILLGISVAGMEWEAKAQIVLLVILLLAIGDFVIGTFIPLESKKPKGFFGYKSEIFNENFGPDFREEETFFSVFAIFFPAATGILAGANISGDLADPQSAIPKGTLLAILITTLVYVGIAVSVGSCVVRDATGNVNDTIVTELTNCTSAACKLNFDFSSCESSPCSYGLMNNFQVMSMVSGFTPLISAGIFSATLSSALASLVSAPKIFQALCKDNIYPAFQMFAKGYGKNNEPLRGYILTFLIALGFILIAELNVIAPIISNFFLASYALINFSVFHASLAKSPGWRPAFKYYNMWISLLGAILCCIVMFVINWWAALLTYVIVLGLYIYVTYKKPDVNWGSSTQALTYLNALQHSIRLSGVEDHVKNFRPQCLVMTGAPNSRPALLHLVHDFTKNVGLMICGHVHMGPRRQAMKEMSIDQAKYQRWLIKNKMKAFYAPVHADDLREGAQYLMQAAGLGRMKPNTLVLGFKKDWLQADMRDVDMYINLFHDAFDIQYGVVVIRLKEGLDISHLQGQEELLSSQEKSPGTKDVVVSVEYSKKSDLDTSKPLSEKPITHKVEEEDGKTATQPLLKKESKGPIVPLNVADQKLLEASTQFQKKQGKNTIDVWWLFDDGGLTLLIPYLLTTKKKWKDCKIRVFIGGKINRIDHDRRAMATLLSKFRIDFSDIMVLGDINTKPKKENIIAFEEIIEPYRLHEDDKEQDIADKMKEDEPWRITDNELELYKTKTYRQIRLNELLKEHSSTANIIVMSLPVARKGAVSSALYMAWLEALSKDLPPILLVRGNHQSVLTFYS
Excerpt: Cet effet a été étudié selon la méthodologie décrite par G. GARAY et coll. dans Naunyn-Schmidberg's Arch. Pharmakol. […] Pharm.

ECHANGEUR D'ANIONS = target: T2, ECHANGEUR D'ANIONS (Homo sapiens, UniProt P02730); test: Anion exchanger of human erythrocytes; assay type: cell-based, ERYTHROCYTES HUMAINS; conditions: read-out: EFFET SUR L'ECHANGEUR D'ANIONS IC 50
T2 construct: systèmes de transport du sodium et du potassium des érythrocytes humains; endogenous in cells; host or cells: human erythrocytes
T2 sequence (P02730 1-911): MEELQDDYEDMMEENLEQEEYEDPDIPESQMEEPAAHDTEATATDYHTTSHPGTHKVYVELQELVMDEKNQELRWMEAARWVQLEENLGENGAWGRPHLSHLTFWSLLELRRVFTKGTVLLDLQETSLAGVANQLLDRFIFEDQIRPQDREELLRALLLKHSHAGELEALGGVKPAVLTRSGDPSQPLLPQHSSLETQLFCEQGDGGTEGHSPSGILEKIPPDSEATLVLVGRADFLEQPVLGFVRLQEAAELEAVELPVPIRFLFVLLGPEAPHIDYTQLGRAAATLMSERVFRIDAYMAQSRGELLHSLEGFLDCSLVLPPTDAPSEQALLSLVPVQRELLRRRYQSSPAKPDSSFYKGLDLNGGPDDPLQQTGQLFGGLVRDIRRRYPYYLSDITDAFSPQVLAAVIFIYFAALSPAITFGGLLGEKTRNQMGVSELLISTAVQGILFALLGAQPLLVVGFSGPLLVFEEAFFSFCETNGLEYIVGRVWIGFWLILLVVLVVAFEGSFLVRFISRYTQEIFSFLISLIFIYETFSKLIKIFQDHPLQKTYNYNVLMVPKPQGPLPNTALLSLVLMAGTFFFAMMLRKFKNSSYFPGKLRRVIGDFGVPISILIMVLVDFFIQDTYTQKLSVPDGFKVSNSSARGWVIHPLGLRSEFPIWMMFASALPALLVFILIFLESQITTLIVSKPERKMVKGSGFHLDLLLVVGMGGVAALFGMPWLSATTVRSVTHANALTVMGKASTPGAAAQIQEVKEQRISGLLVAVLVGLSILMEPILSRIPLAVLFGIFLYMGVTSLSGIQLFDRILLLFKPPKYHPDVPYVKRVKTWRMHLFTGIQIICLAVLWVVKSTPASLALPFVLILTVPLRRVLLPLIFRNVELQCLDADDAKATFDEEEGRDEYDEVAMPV
Excerpt: Cet effet a été étudié selon la méthodologie décrite par G. GARAY et coll. dans Naunyn-Schmidberg's Arch. Pharmakol. 334 (1986) 202-209 et dans Bioch. Pharm. 33 (1984) 2013-2020.

NS(=O)(=O)c1cc(C(=O)O)c(NCc2ccco2)cc1Cl [FUROSEMIDE, reference compound]
IC50 (COTRANSPORT Na-K): 37 µM | IC50 (ECHANGEUR D'ANIONS): 200 µM
